This assay concerns the target Interferon-induced transmembrane protein 3 (Ifitm3), mouse (mouse (endogenous in BM-DCs)) (UniProt Q9CQW9). Put plainly: co-IP; IP with anti-fragilis (Ifitm3) from lysates of wt and Ifitm3-/- BM-DCs infected with MCMV (MOI 1) for 3 h; Ifitm3 and Nogo-B detected by Western blot. (Immunoblotting shows a protein as a band on a membrane.)

Amino acid sequences for entries named in this document (tags omitted).
UniProt Q9CQW9: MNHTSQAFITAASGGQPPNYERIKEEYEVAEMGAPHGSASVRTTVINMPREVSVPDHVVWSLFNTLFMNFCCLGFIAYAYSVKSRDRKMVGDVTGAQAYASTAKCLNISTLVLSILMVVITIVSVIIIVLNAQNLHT

These are yes or no findings as the source states them, for the method shown. Binding seen in cells or lysates may run through a third protein. Some results given as binding are weak or reduced against the parent protein; the word gives no strength.

B1: Nogo-B (reticulon 4 isoform), mouse (protein, UniProt Q99P72-5 1-356)
chain: MEDIDQSSLVSSSADSPPRPPPAFKYQFVTEPEDEEDEEDEEEEEDDEDLEELEVLERKPAAGLSAAPVPPAAAPLLDFSSDSVPPAPRGPLPAAPPTAPERQPSWERSPAASAPSLPPAAAVLPSKLPEDDEPPARPPAPAGASPLAEPAAPPSTPAAPKRRGSGSVVVDLLYWRDIKKTGVVFGASLFLLLSLTVFSIVSVTAYIALALLSVTISFRIYKGVIQAIQKSDEGHPFRAYLESEVAISEELVQKYSNSALGHVNSTIKELRRLFLVDDLVDSLKFAVLMWVFTYVGALFNGLTLLILALISLFSIPVIYERHQAQIDHYLGLANKSVKDAMAKIQAKIPGLKRKAE
Consider B1, for which the binding result was “binds”.

The values above are taken from publication PMC9454482.
